Here are results for one molecule from ChEMBL document CHEMBL3739408, “Antibacterial Prenylated Acylphloroglucinols from Psorothamnus fremontii” (J Nat Prod, 2015).

By IC50 is commonly meant the concentration needed to halve the response being measured.

Converted amounts (≈) assume the structure as drawn.

This experiment has as its system HepG2. Description: Cytotoxicity against human HepG2 cells assessed as cell viability after 48 hrs by neutral red-based assay. Particulars: HepG2, 48 h. The method in brief: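 Mammalian cell lines from ATCC: human hepatic carcinoma HepG2, pig kidney epithelial LLC-PK1, and African green monkey kidney Vero. Highest test concentration was 50 μg/mL, and doxorubicin was the positive control at up to 10 μg/mL. IC50 was taken as the concentration giving 50% growth inhibition of the mammalian cells.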

With `COc1cccc2c1C(=O)c1c(O)c3c(c(O)c1C2=O)C[C@@](O)(C(=O)CO)C[C@@H]3O[C@H]1C[C@H](N)[C@H](O)[C@H](C)O1` [DOXORUBICIN], the IC50 was 0.4 µg/mL (≈ 0.736 µM).
